These are yes or no findings as the source states them, for the method shown. In cells and extracts the contact can be indirect. A result given as binding can be weak or reduced; the word gives no strength.
Target: microtubules (human (endogenous in H520))
Assay: co-sedimentation; MT co-sedimentation from lysates of H520^NC, H520^VASH2 and H520^VASH2-mut cells; 80 mM PIPES, 1 mM EGTA, 1 mM MgCl2, pH 6.9, 1 mM GTP, 1 mM DTT, 1% NP40; taxol (2 μM) 30 min 37 °C or nocodazole (1 μM) 30 min 4 °C; 100000 × g through a 10% sucrose cushion; western blotting of supernatant and pellet

B1: kinesin family member 3C (protein, UniProt O14782 1-793)
chain: MASKTKASEALKVVARCRPLSRKEEAAGHEQILTMDVKLGQVTLRNPRAAPGELPKTFTFDAVYDASSKQADLYDETVRPLIDSVLQGFNGTVFAYGQTGTGKTYTMQGTWVEPELRGVIPNAFEHIFTHISRSQNQQYLVRASYLEIYQEEIRDLLSKEPGKRLELKENPETGVYIKDLSSFVTKNVKEIEHVMNLGNQTRAVGSTHMNEVSSRSHAIFIITVECSERGSDGQDHIRVGKLNLVDLAGSERQNKAGPNTAGGAATPSSGGGGGGGGSGGGAGGERPKEASKINLSLSALGNVIAALAGNRSTHIPYRDSKLTRLLQDSLGGNAKTIMVATLGPASHSYDESLSTLRFANRAKNIKNKPRVNEDPKDTLLREFQEEIARLKAQLEKRGMLGKRPRRKSSRRKKAVSAPPGYPEGPVIEAWVAEEEDDNNNNHRPPQPILESALEKNMENYLQEQKERLEEEKAAIQDDRSLVSEEKQKLLEEKEKMLEDLRREQQATELLAAKYKAMESKLLIGGRNIMDHTNEQQKMLELKRQEIAEQKRREREMQQEMMLRDEETMELRGTYTSLQQEVEVKTKKLKKLYAKLQAVKAEIQDQHDEYIRVRQDLEEAQNEQTRELKLKYLIIENFIPPEEKNKIMNRLFLDCEEEQWKFQPLVPAGVSSSQMKKRPTSAVGYKRPISQYARVAMAMGSHPRYRAENIMFLELDVSPPAVFEMEFSHDQEQDPRALHMERLMRLDSFLERPSTSKVRKSRSWCQSPQRPPPSTTHASLASASLRPATVADHE
binding: binds

Reference: publication PMC11499603
